Results are given in words; binding and its absence hold for the method and conditions named. Binding calls can cover weak binding; strength is not graded here. Tags and fused reporters may be left off the sequences shown.

This assay has as its target T1, GST-p107-R1R2 (human) (UniProt P28749).
T1 sequence: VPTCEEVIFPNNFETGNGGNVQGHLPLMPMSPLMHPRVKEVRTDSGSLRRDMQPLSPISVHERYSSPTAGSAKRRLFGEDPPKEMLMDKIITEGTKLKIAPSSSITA
Put plainly: pull-down.

Take purified PP2A/B55α holoenzyme (complex): the binding entry is on record as “binds”.
